From article doi:10.1101/2022.04.06.487280
These are yes or no findings as the source states them, for the method shown. In cells and extracts the contact can be indirect. Some results given as binding are weak or reduced against the parent protein; the word gives no strength. Where a sequence is shown, tags or fusion partners need not be part of it.

Protein sequences, listed by entry. Tags and fused reporters are not part of them.
UniProt P09874: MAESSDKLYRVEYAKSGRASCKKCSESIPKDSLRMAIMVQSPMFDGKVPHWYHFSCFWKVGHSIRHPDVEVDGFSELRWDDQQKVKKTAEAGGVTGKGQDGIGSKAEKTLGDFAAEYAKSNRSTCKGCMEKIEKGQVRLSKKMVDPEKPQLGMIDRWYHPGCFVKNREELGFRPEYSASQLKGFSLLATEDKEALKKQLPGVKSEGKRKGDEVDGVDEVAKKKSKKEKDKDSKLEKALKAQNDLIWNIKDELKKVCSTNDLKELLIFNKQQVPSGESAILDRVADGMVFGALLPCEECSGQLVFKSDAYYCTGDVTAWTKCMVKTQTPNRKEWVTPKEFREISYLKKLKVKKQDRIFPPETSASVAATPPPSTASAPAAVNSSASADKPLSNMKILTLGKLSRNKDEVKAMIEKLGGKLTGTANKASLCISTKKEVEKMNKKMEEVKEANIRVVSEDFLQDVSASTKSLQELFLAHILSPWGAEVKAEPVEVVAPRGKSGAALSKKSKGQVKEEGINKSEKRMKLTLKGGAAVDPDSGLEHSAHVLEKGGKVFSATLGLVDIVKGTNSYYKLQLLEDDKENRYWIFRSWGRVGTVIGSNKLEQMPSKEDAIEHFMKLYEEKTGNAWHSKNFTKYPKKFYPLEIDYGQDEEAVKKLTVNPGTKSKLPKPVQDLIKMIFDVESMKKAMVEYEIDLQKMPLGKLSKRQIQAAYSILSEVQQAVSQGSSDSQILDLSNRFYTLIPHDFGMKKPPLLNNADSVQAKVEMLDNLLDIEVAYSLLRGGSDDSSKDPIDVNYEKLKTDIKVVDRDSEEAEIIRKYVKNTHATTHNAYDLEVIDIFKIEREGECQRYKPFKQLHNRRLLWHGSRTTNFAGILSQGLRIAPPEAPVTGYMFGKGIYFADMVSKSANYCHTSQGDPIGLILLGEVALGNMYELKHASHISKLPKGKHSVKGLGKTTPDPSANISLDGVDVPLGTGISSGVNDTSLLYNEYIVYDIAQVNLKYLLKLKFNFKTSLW

T1: aminoacyl-tRNA synthetase interacting multifunctional protein 2, myc-tagged or GFP-tagged, transfected (UniProt Q13155)
T1 sequence: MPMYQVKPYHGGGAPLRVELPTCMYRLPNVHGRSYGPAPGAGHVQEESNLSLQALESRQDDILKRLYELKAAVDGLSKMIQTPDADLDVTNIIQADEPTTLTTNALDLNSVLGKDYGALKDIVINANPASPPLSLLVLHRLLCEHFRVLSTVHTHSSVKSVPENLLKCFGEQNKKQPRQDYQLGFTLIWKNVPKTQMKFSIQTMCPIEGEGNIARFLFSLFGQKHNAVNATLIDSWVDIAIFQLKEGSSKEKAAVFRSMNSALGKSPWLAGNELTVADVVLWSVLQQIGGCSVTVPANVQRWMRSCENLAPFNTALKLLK

T2: aminoacyl-tRNA synthetase interacting multifunctional protein 2, myc-tagged or GFP-tagged, transfected, Q13155
T2 chain: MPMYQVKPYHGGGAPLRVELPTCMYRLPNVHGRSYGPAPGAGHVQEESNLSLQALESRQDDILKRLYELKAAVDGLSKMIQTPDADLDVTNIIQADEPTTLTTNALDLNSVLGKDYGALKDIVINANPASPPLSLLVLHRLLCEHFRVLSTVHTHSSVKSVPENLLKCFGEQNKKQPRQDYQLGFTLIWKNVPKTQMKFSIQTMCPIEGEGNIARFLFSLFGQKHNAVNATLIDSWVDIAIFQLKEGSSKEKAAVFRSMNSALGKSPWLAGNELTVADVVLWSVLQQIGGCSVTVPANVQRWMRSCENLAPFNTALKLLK


How the values were obtained:
Test in all cases: co-IP
[1] = biological target: poly (ADP-ribose) polymerase-1 (human (endogenous in SH-SY5Y)) (UniProt P09874)
[2] = biological target: DX2, splice variant of AIMP2 lacking exon 2, myc-tagged or GFP-tagged, transfected (UniProt Q13155)
[3] = biological target: T1, aminoacyl-tRNA synthetase interacting multifunctional protein 2, myc-tagged or GFP-tagged, transfected
[4] = biological target: T2, aminoacyl-tRNA synthetase interacting …; conditions: remark: other sources report otherwise

Binder | binding [1] | binding [2] | binding [3] | binding [4]
DX2, splice variant of AIMP2 lacking exon 2, myc-tagged or GFP-tagged, transfected (protein, UniProt Q13155-2 1-251) MPMYQVKPYHGGGAPLRVELPTCMYRLPNVHGRSYGPAPGAGHVQDYGALKDIVINANPASPPLSLLVLHRLLCEHFRVLSTVHTHSSVKSVPENLLKCFGEQNKKQPRQDYQLGFTLIWKNVPKTQMKFSIQTMCPIEGEGNIARFLFSLFGQKHNAVNATLIDSWVDIAIFQLKEGSSKEKAAVFRSMNSALGKSPWLAGNELTVADVVLWSVLQQIGGCSVTVPANVQRWMRSCENLAPFNTALKLLK | binds | binds weakly | binds | –
AIMP2 in SH-SY5Y cells transfected with DX2 vector or DX2 siRNA (protein, UniProt Q13155 1-320) MPMYQVKPYHGGGAPLRVELPTCMYRLPNVHGRSYGPAPGAGHVQEESNLSLQALESRQDDILKRLYELKAAVDGLSKMIQTPDADLDVTNIIQADEPTTLTTNALDLNSVLGKDYGALKDIVINANPASPPLSLLVLHRLLCEHFRVLSTVHTHSSVKSVPENLLKCFGEQNKKQPRQDYQLGFTLIWKNVPKTQMKFSIQTMCPIEGEGNIARFLFSLFGQKHNAVNATLIDSWVDIAIFQLKEGSSKEKAAVFRSMNSALGKSPWLAGNELTVADVVLWSVLQQIGGCSVTVPANVQRWMRSCENLAPFNTALKLLK | binds | – | – | –

The remaining lines, values ahead:

binding [1] | binding [2] | binding [3] | binding [4] | Binder
binds | – | – | – | aminoacyl-tRNA synthetase interacting multifunctional protein 2, myc-tagged or GFP-tagged, transfected (protein, UniProt Q13155 1-320) MPMYQVKPYHGGGAPLRVELPTCMYRLPNVHGRSYGPAPGAGHVQEESNLSLQALESRQDDILKRLYELKAAVDGLSKMIQTPDADLDVTNIIQADEPTTLTTNALDLNSVLGKDYGALKDIVINANPASPPLSLLVLHRLLCEHFRVLSTVHTHSSVKSVPENLLKCFGEQNKKQPRQDYQLGFTLIWKNVPKTQMKFSIQTMCPIEGEGNIARFLFSLFGQKHNAVNATLIDSWVDIAIFQLKEGSSKEKAAVFRSMNSALGKSPWLAGNELTVADVVLWSVLQQIGGCSVTVPANVQRWMRSCENLAPFNTALKLLK
– | – | – | binds | aminoacyl-tRNA synthetase interacting multifunctional protein 2, myc-tagged or GFP-tagged, transfected, Q13155 1-320 (protein) MPMYQVKPYHGGGAPLRVELPTCMYRLPNVHGRSYGPAPGAGHVQEESNLSLQALESRQDDILKRLYELKAAVDGLSKMIQTPDADLDVTNIIQADEPTTLTTNALDLNSVLGKDYGALKDIVINANPASPPLSLLVLHRLLCEHFRVLSTVHTHSSVKSVPENLLKCFGEQNKKQPRQDYQLGFTLIWKNVPKTQMKFSIQTMCPIEGEGNIARFLFSLFGQKHNAVNATLIDSWVDIAIFQLKEGSSKEKAAVFRSMNSALGKSPWLAGNELTVADVVLWSVLQQIGGCSVTVPANVQRWMRSCENLAPFNTALKLLK
